Measurements published in the supplement of paper PMC4604168 (melanoma cell lines).
The other results are listed elsewhere or left out. Many values rest on one well or one pass, so single values are uncertain.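 Cells were imaged in 1,536-well plates, and nuclei stained with an antibody against cleaved PARP were counted against all DNA-stained nuclei to give the apoptosis fraction. Screening doses were chosen to leave most cells alive, and resting and induced cleaved-PARP levels differ strongly between cell lines.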

How the values were obtained:
Assay in all cases: cleaved PARP positive nuclei fraction relative to DMSO control; melanoma cells; higher = more apoptosis
Details in all cases: library dose: low library concentration; 72 h
CBRC034 = tested on: CBRC034 (line from a melanoma biopsy)
COLO792 = tested on: COLO792
COLO800 = tested on: COLO800
COLO829 = tested on: COLO829
G361 = tested on: G361
IPC-298 = tested on: IPC-298
IST-MEL1 = tested on: IST-MEL1
LB2518-MEL = tested on: LB2518-MEL
LOXIMVI = tested on: LOXIMVI
MEL-HO = tested on: MEL-HO
MZ2-MEL = tested on: MZ2-MEL
MeWo = tested on: MeWo
RPMI7951 = tested on: RPMI7951
RVH-421 = tested on: RVH-421
SkMel28 = tested on: SkMel28
SkMel2 = tested on: SkMel2
SkMel30 = tested on: SkMel30
UACC62 = tested on: UACC62

| SMILES | cleaved PARP positive nuclei fraction (CBRC034) [%] | cleaved PARP positive nuclei fraction (COLO792) [%] | cleaved PARP positive nuclei fraction (COLO800) [%] | cleaved PARP positive nuclei fraction (COLO829) [%] | cleaved PARP positive nuclei fraction (G361) [%] | cleaved PARP positive nuclei fraction (IPC-298) [%] | cleaved PARP positive nuclei fraction (IST-MEL1) [%] | cleaved PARP positive nuclei fraction (LB2518-MEL) [%] | cleaved PARP positive nuclei fraction (LOXIMVI) [%] | cleaved PARP positive nuclei fraction (MEL-HO) [%] | cleaved PARP positive nuclei fraction (MZ2-MEL) [%] | cleaved PARP positive nuclei fraction (MeWo) [%] | cleaved PARP positive nuclei fraction (RPMI7951) [%] | cleaved PARP positive nuclei fraction (RVH-421) [%] | cleaved PARP positive nuclei fraction (SkMel28) [%] | cleaved PARP positive nuclei fraction (SkMel2) [%] | cleaved PARP positive nuclei fraction (SkMel30) [%] | cleaved PARP positive nuclei fraction (UACC62) [%] |
| --- | --- | --- | --- | --- | --- | --- | --- | --- | --- | --- | --- | --- | --- | --- | --- | --- | --- | --- |
| CCCCCCCCCCCCCCCCCCOP(=O)([O-])OC1CC[N+](C)(C)CC1 [Perifosine] + COc1ccc(Cl)c(Nc2nc3ccccc3nc2NS(=O)(=O)c2cccc(NC(=O)C(C)(C)N)c2)c1 [XL147] (first compound 0.4 µM, partner dose 0.8 µM) | 181 | 142 | 96 | 143 | 86.4 | 57.9 | 223 | 209 | 94.8 | 45.8 | 15.5 | 73.3 | 89.8 | 44.8 | 27.2 | 101 | 79 | 51.3 |
| O=C(Nc1cc(C(F)(F)F)cc(C(F)(F)F)c1)c1cc(Cl)ccc1O + CC(=O)c1c(C)c2cnc(Nc3ccc(N4CCNCC4)cn3)nc2n(C2CCCC2)c1=O [palbociclib] (first compound 0.016 µM, partner dose 0.04 µM) | 274 | 166 | 88.7 | 96.2 | 112 | 128 | 70.1 | 229 | 274 | 45.5 | 44.5 | 84.3 | 202 | 60.9 | 127 | 52.7 | 41.9 | 145 |
| O=C(Nc1cc(C(F)(F)F)cc(C(F)(F)F)c1)c1cc(Cl)ccc1O + Cn1sc(=O)n(Cc2ccccc2)c1=O [TDZD-8] (first compound 0.016 µM, partner dose 0.4 µM) | 66.1 | 116 | 120 | 52.6 | 88.1 | 89.6 | 32.7 | 105 | 66.7 | 71 | 88.4 | 64.7 | 71 | 43.7 | 131 | 159 | 18.9 | 23.2 |
| COc1cc([C@@H]2c3cc4c(cc3[C@@H](O[C@@H]3O[C@@H]5CO[C@@H](C)O[C@H]5[C@H](O)[C@H]3O)[C@H]3COC(=O)[C@H]23)OCO4)cc(OC)c1O [etoposide] + NC1(c2ccc(-c3nc4ccn5c(=O)[nH]nc5c4cc3-c3ccccc3)cc2)CCC1 [MK2206] (first compound 0.02 µM, partner dose 0.4 µM) | 283 | 61.1 | 34.2 | 154 | 189 | 104 | 61.4 | 69.7 | 54.4 | 179 | 117 | 59.2 | 99.4 | 214 | 115 | 244 | 207 | 66.3 |
| N#CC[C@H](C1CCCC1)n1cc(-c2ncnc3[nH]ccc23)cn1 [ruxolitinib] + Cn1c(Nc2ccc(C(F)(F)F)cc2)nc2cc(Oc3ccnc(-c4ncc(C(F)(F)F)[nH]4)c3)ccc21 [CHIR265] (first compound 1 µM, partner dose 0.08 µM) | 71.7 | 153 | 60.1 | 70.5 | 165 | 66.6 | 68.8 | 178 | 105 | 96.4 | 20.4 | 277 | 65.9 | 300 | 230 | 111 | 95.9 | 36.2 |
| O=C(Nc1cc(C(F)(F)F)cc(C(F)(F)F)c1)c1cc(Cl)ccc1O + CCN(CC)CCNC(=O)c1c(C)[nH]c(/C=C2\C(=O)Nc3ccc(F)cc32)c1C [sunitinib] (first compound 0.016 µM, partner dose 0.4 µM) | 56.8 | 114 | 199 | 75 | 116 | 43.4 | 30.4 | 158 | 134 | 56.1 | 122 | 88.3 | 91.7 | 86.3 | 132 | 65.8 | 20.3 | 141 |
| N#CC[C@H](C1CCCC1)n1cc(-c2ncnc3[nH]ccc23)cn1 [ruxolitinib] + Cc1cn(-c2cc(NC(=O)c3ccc(C)c(Nc4nccc(-c5cccnc5)n4)c3)cc(C(F)(F)F)c2)cn1 [nilotinib] (first compound 1 µM, partner dose 0.2 µM) | 149 | 106 | 52.5 | 107 | 177 | 44.6 | 87.6 | 154 | 93.5 | 120 | 91 | 185 | 109 | 48.2 | 31.4 | 222 | 94.3 | 250 |
| O=c1[nH]nc(Sc2ncc([N+](=O)[O-])s2)n1-c1ccc2c(c1)OCCO2 + C=CCNC1=C2C[C@@H](C)C[C@H](OC)[C@H](O)[C@@H](C)/C=C(\C)[C@H](OC(N)=O)[C@@H](OC)/C=C\C=C(/C)C(=O)NC(=CC1=O)C2=O [Tanespimycin] (first compound 0.2 µM, partner dose 0.002 µM) | 70.2 | 55.6 | 86.1 | 112 | 141 | 43.5 | 165 | 135 | 77.5 | 109 | 45.1 | 134 | 65.7 | 142 | 82.1 | 138 | 93.8 | 57.7 |
| CCCCCCCCCCCCCCCCCCOP(=O)([O-])OC1CC[N+](C)(C)CC1 [Perifosine] + O=C(/C=C/c1cccnc1)NCCCCC1CCN(C(=O)c2ccccc2)CC1 [FK866] (first compound 0.4 µM, partner dose 0.01 µM) | 969 | 448 | 199 | 347 | 3150 | 137 | 87 | 118 | 73.8 | 151 | 416 | 164 | 67.3 | 50.4 | 162 | 1250 | 21.8 | 268 |
